According to the supplement of paper PMC8728848:
The other results are listed elsewhere or left out.

Columns and labels:
Assay in all cases: glycan array binding signal (z-score within array); higher = stronger binding
Settings in all cases: glycan notation: IUPAC condensed, linker removed
[1] = target: GlcNAc(a1-3)Gal(b1-4)GlcNAc
Method in brief: (§1)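 Glycan array data were curated from 3228 arrays in the Consortium for Functional Glycomics database and kept only where the protein sequence was available. Glycan names were converted to IUPAC-condensed notation, and columns mapping to the same glycan were averaged. The binding signal is a within-array Z-score, averaged across arrays of the same protein sequence at different concentrations or buffers and across linkers. Negative Z-scores can be read as non-binding.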

[2] = target: GlcNAc(a1-4)Gal(b1-3)GlcNAc
Method in brief: as §1

[3] = target: GlcNAc(a1-4)Gal(b1-4)GalNAc
Method in brief: as §1

[4] = target: GlcNAc(a1-4)Gal(b1-4)GlcNAc
Method in brief: as §1

[5] = target: GlcNAc(a1-4)Gal(b1-4)GlcNAc(b1-3)Gal(b1-4)Glc
Method in brief: as §1

[6] = target: GlcNAc(a1-4)Gal(b1-4)GlcNAc(b1-3)Gal(b1-4)GlcNAc
Method in brief: as §1

[7] = target: GlcNAc(a1-4)Gal(b1-4)GlcNAc(b1-3)Gal(b1-4)GlcNAc(b1-3)Gal(b1-4)GlcNAc
Method in brief: as §1

[8] = target: GlcNAc(a1-4)Gal(b1-4)GlcNAc(b1-3)Gal(b1-4)[Fuc(a1-3)]GlcNAc(b1-3)Gal(b1-4)[Fuc(a1-3)]GlcNAc
Method in brief: as §1

[9] = target: GlcNAc(a1-6)Gal(b1-4)GlcNAc
Method in brief: as §1

[10] = target: GlcNAc(b1-2)Gal(b1-3)GalNAc
Method in brief: as §1

[11] = target: GlcNAc(b1-2)Man(a1-3)[GlcNAc(b1-2)Man(a1-6)]Man(b1-4)GlcNAc(b1-4)GlcNAc
Method in brief: as §1

[12] = target: GlcNAc(b1-2)Man(a1-3)[GlcNAc(b1-2)Man(a1-6)]Man(b1-4)GlcNAc(b1-4)[Fuc(a1-6)]GlcNAc
Method in brief: as §1

[13] = target: GlcNAc(b1-2)Man(a1-3)[GlcNAc(b1-4)][GlcNAc(b1-2)Man(a1-6)]Man(b1-4)GlcNAc(b1-4)GlcNAc
Method in brief: as §1

[14] = target: GlcNAc(b1-2)Man(a1-3)[GlcNAc(b1-4)][GlcNAc(b1-2)Man(a1-6)]Man(b1-4)GlcNAc(b1-4)[Fuc(a1-6)]GlcNAc
Method in brief: as §1

[15] = target: GlcNAc(b1-2)[GlcNAc(b1-4)]Man(a1-3)[GlcNAc(b1-2)Man(a1-6)]Man(b1-4)GlcNAc(b1-4)GlcNAc
Method in brief: as §1

[16] = target: GlcNAc(b1-2)[GlcNAc(b1-4)]Man(a1-3)[GlcNAc(b1-4)][GlcNAc(b1-2)Man(a1-6)]Man(b1-4)GlcNAc(b1-4)GlcNAc
Method in brief: as §1

[17] = target: GlcNAc(b1-2)[GlcNAc(b1-4)]Man(a1-3)[GlcNAc(b1-4)][GlcNAc(b1-2)[GlcNAc(b1-6)]Man(a1-6)]Man(b1-4)GlcNAc(b1-4)GlcNAc
Method in brief: as §1

[18] = target: GlcNAc(b1-2)[GlcNAc(b1-4)]Man(a1-3)[GlcNAc(b1-4)][GlcNAc(b1-2)[GlcNAc(b1-6)]Man(a1-6)]Man(b1-4)GlcNAc(b1-4)[Fuc(a1-6)]GlcNAc
Method in brief: as §1

[19] = target: GlcNAc(b1-2)[GlcNAc(b1-6)]Man(a1-6)[GlcNAc(b1-2)Man(a1-3)]Man(b1-4)GlcNAc(b1-4)GlcNAc
Method in brief: as §1

[20] = target: GlcNAc(b1-2)[GlcNAc(b1-6)]Man(a1-6)[GlcNAc(b1-2)Man(a1-3)]Man(b1-4)GlcNAc(b1-4)[Fuc(a1-6)]GlcNAc
Method in brief: as §1

[21] = target: GlcNAc(b1-2)[GlcNAc(b1-6)]Man(a1-6)[GlcNAc(b1-4)][GlcNAc(b1-2)Man(a1-3)]Man(b1-4)GlcNAc(b1-4)GlcNAc
Method in brief: as §1

GlcNAc(b1-3)Fuc = target: GlcNAc(b1-3)Fuc
Method in brief: as §1

GlcNAc(b1-3)Gal = target: GlcNAc(b1-3)Gal
Method in brief: as §1

[22] = target: GlcNAc(b1-3)Gal(b1-3)GalNAc
Method in brief: as §1

GlcNAc(b1-3)Gal(b1-4)Glc = target: GlcNAc(b1-3)Gal(b1-4)Glc
Method in brief: as §1

[23] = target: GlcNAc(b1-3)Gal(b1-4)GlcNAc
Method in brief: as §1

[24] = target: GlcNAc(b1-3)Gal(b1-4)GlcNAc(b1-2)Man(a1-3)[GlcNAc(b1-3)Gal(b1-4)GlcNAc(b1-2)Man(a1-6)]Man(b1-4)GlcNAc(b1-4)GlcNAc
Method in brief: as §1

[25] = target: GlcNAc(b1-3)Gal(b1-4)GlcNAc(b1-2)Man(a1-3)[GlcNAc(b1-3)Gal(b1-4)GlcNAc(b1-2)Man(a1-6)]Man(b1-4)GlcNAc(b1-4)[Fuc(a1-6)]GlcNAc
Method in brief: as §1

[26] = target: GlcNAc(b1-3)Gal(b1-4)GlcNAc(b1-2)[GlcNAc(b1-3)Gal(b1-4)GlcNAc(b1-6)]Man(a1-6)[GlcNAc(b1-3)Gal(b1-4)GlcNAc(b1-2)Man(a1-3)]Man(b1-4)GlcNAc(b1-4)GlcNAc
Method in brief: as §1

[27] = target: GlcNAc(b1-3)Gal(b1-4)GlcNAc(b1-3)Gal(b1-4)GlcNAc
Method in brief: as §1

[28] = target: GlcNAc(b1-3)Gal(b1-4)GlcNAc(b1-3)Gal(b1-4)GlcNAc(b1-2)Man(a1-3)[GlcNAc(b1-3)Gal(b1-4)GlcNAc(b1-3)Gal(b1-4)GlcNAc(b1-2)Man(a1-6)]Man(b1-4)GlcNAc(b1-4)GlcNAc
Method in brief: as §1

[29] = target: GlcNAc(b1-3)Gal(b1-4)GlcNAc(b1-3)Gal(b1-4)GlcNAc(b1-2)Man(a1-3)[GlcNAc(b1-3)Gal(b1-4)GlcNAc(b1-3)Gal(b1-4)GlcNAc(b1-2)Man(a1-6)]Man(b1-4)GlcNAc(b1-4)[Fuc(a1-6)]GlcNAc
Method in brief: as §1

[30] = target: GlcNAc(b1-3)Gal(b1-4)GlcNAc(b1-3)Gal(b1-4)GlcNAc(b1-2)[GlcNAc(b1-3)Gal(b1-4)GlcNAc(b1-3)Gal(b1-4)GlcNAc(b1-6)]Man(a1-6)[GlcNAc(b1-3)Gal(b1-4)GlcNAc(b1-3)Gal(b1-4)GlcNAc(b1-2)Man(a1-3)]Man(b1-4)GlcNAc(b1-4)[Fuc(a1-6)]GlcNAc
Method in brief: as §1

[31] = target: GlcNAc(b1-3)Gal(b1-4)GlcNAc(b1-3)Gal(b1-4)GlcNAc(b1-3)Gal(b1-4)GlcNAc(b1-2)Man(a1-3)[GlcNAc(b1-3)Gal(b1-4)GlcNAc(b1-3)Gal(b1-4)GlcNAc(b1-3)Gal(b1-4)GlcNAc(b1-2)Man(a1-6)]Man(b1-4)GlcNAc(b1-4)GlcNAc
Method in brief: as §1

[32] = target: GlcNAc(b1-3)Gal(b1-4)GlcNAc(b1-3)Gal(b1-4)GlcNAc(b1-3)Gal(b1-4)GlcNAc(b1-2)Man(a1-3)[GlcNAc(b1-3)Gal(b1-4)GlcNAc(b1-3)Gal(b1-4)GlcNAc(b1-3)Gal(b1-4)GlcNAc(b1-2)Man(a1-6)]Man(b1-4)GlcNAc(b1-4)[Fuc(a1-6)]GlcNAc
Method in brief: as §1

[33] = target: GlcNAc(b1-3)Gal(b1-4)GlcNAc(b1-3)Gal(b1-4)GlcNAc(b1-3)Gal(b1-4)GlcNAc(b1-2)[GlcNAc(b1-3)Gal(b1-4)GlcNAc(b1-3)Gal(b1-4)GlcNAc(b1-3)Gal(b1-4)GlcNAc(b1-6)]Man(a1-6)[GlcNAc(b1-3)Gal(b1-4)GlcNAc(b1-3)Gal(b1-4)GlcNAc(b1-3)Gal(b1-4)GlcNAc(b1-2)Man(a1-3)]Man(b1-4)GlcNAc(b1-4)[Fuc(a1-6)]GlcNAc
Method in brief: as §1

[34] = target: GlcNAc(b1-3)Gal(b1-4)GlcNAc(b1-3)Gal(b1-4)GlcNAc(b1-3)Gal(b1-4)GlcNAc(b1-3)Gal(b1-4)GlcNAc(b1-2)Man(a1-3)[GlcNAc(b1-3)Gal(b1-4)GlcNAc(b1-3)Gal(b1-4)GlcNAc(b1-3)Gal(b1-4)GlcNAc(b1-3)Gal(b1-4)GlcNAc(b1-2)Man(a1-6)]Man(b1-4)GlcNAc(b1-4)GlcNAc
Method in brief: as §1

[35] = target: GlcNAc(b1-3)Gal(b1-4)GlcNAc(b1-3)Gal(b1-4)GlcNAc(b1-3)Gal(b1-4)GlcNAc(b1-3)Gal(b1-4)GlcNAc(b1-2)Man(a1-3)[GlcNAc(b1-3)Gal(b1-4)GlcNAc(b1-3)Gal(b1-4)GlcNAc(b1-3)Gal(b1-4)GlcNAc(b1-3)Gal(b1-4)GlcNAc(b1-2)Man(a1-6)]Man(b1-4)GlcNAc(b1-4)[Fuc(a1-6)]GlcNAc
Method in brief: as §1

B1: SP15308B-bot-339-22-339 (Bacteroides ovatus) (protein)
chain: NEWEDEQYEQYVSFKAPIASGSDGVTTIYVRYKDNGKVTYQLPIIVSGSTVNSQDRDIHIAVDKDTLKTLNIERFSLYRPELWYTEMEEDKYEFPETVHIPAGSCVELLNIDFNLQDIDMLEKWVLPLTIVDDGSYAYQSHPRKNYAKALLKVVPFNNYSGSYTASSMKVYTYINGKPDTNARTTDKRTGYVVDNNSIFFYAGLINEDMDKDMRKKYKINVHFKEDGTLDMKQDDPSNEMEFELIGTPTYSSTSVMDATRPYLERRYVQIMFEYDFQDFTYGGSGTEVIPIKYRVAGSMTLLRNINTQIPDEDQQIEW
- glycan array binding signal (z-score) [1]: -0.002
- glycan array binding signal (z-score) [2]: -0.062
- glycan array binding signal (z-score) [3]: -0.192
- glycan array binding signal (z-score) [4]: -0.465
- glycan array binding signal (z-score) [5]: -0.022
- glycan array binding signal (z-score) [6]: -0.492
- glycan array binding signal (z-score) [7]: -0.603
- glycan array binding signal (z-score) [8]: 1.75
- glycan array binding signal (z-score) [9]: -0.154
- glycan array binding signal (z-score) [10]: 0.496
- glycan array binding signal (z-score) [11]: -0.414
- glycan array binding signal (z-score) [12]: -0.018
- glycan array binding signal (z-score) [13]: -0.034
- glycan array binding signal (z-score) [14]: -0.537
- glycan array binding signal (z-score) [15]: -0.408
- glycan array binding signal (z-score) [16]: -0.293
- glycan array binding signal (z-score) [17]: -0.495
- glycan array binding signal (z-score) [18]: -0.263
- glycan array binding signal (z-score) [19]: -0.509
- glycan array binding signal (z-score) [20]: -0.039
- glycan array binding signal (z-score) [21]: 0.02
- glycan array binding signal (z-score) (GlcNAc(b1-3)Fuc): 0.004
- glycan array binding signal (z-score) (GlcNAc(b1-3)Gal): -0.263
- glycan array binding signal (z-score) [22]: -0.117
- glycan array binding signal (z-score) (GlcNAc(b1-3)Gal(b1-4)Glc): 0.003
- glycan array binding signal (z-score) [23]: -0.398
- glycan array binding signal (z-score) [24]: -0.302
- glycan array binding signal (z-score) [25]: 0.423
- glycan array binding signal (z-score) [26]: 0.517
- glycan array binding signal (z-score) [27]: -0.305
- glycan array binding signal (z-score) [28]: 0.767
- glycan array binding signal (z-score) [29]: 0.356
- glycan array binding signal (z-score) [30]: 0.672
- glycan array binding signal (z-score) [31]: 0.302
- glycan array binding signal (z-score) [32]: 0.096
- glycan array binding signal (z-score) [33]: 0.005
- glycan array binding signal (z-score) [34]: 0.324
- glycan array binding signal (z-score) [35]: 0.641
